The list shows only some results of the screen, not a fair sample: it gathers tests that were run many times, whatever their T/C, doses with no T/C, and many T/C values between a quarter and a half above the control. Other doses and runs of a compound stand elsewhere. T/C is the treated group as % of the vehicle group. Some entries give survivors of the animals treated and no T/C: the source holds a T/C of zero for them, seemingly a mark for toxic or unscored doses. Some doses without a T/C left all or most animals alive at the check, yet need not have been tolerated: the source hardly ever lists a survival T/C far under the control, and the zero likely stands for such cases as well. Counts of survivors are from the toxicity check (mostly the fifth day) where no day follows; animals may have died later. Schedules are NCI's codes, taken here to give the interval after Q, in days (D) or hours (H), and the number of doses after X. Some entries hold several experiments; the results are listed from low to high. Some molecules as drawn cover several salts, stereoisomers or complexes of the source; a dose is that of the sample tested. For survival time, the PubChem record calls one and a half times the control and up active, and a quarter to a half above the control has no call in these data; cut-offs in other NCI protocols can differ. Some T/C values are followed by the survivors on the day toxicity was checked, most often the fifth; without a count, all were alive then.
Tested on: P388 leukemia ip, CD2F1 mice, survival T/C
Experiment: NCI In Vivo Anticancer Drug Screen. Data for tumor model P388 Leukemia (intraperitoneal) in CD2F1 (CDF1) mice
Settings: T/C endpoint: median survival time, higher T/C = longer survival
[1] = dose: 200.0 mg/kg/injection, schedule: Q01DX009 (ip), vehicle: saline
[2] = dose: 120.0 mg/kg/injection, schedule: Q01DX005 (ip), vehicle: saline with Tween-80
[3] = dose: 240.0 mg/kg/injection, schedule: Q01DX005 (ip), vehicle: saline with Tween-80
[4] = dose: 400.0 mg/kg/injection, schedule: Q01DX009 (ip), vehicle: saline with Tween-80
[5] = dose: 12.5 mg/kg/injection, schedule: Q01DX005 (ip), vehicle: saline with Tween-80
[6] = dose: 50.0 mg/kg/injection, schedule: Q01DX005 (ip), vehicle: saline with Tween-80
[7] = dose: 100.0 mg/kg/injection, schedule: Q01DX005 (ip), vehicle: saline with Tween-80
[8] = dose: 200.0 mg/kg/injection, schedule: Q01DX005 (ip), vehicle: saline with Tween-80
[9] = dose: 200.0 mg/kg/injection, schedule: Q01DX009 (ip), vehicle: Klucel (hydroxypropylcellulose) (HPC)
[10] = dose: 400.0 mg/kg/injection, schedule: Q04DX002 (ip), vehicle: saline with Tween-80
[11] = dose: 60.0 mg/kg/injection, schedule: Q01DX005 (ip), vehicle: Klucel (hydroxypropylcellulose) (HPC)
[12] = dose: 25.0 mg/kg/injection, schedule: Q01DX005 (ip), vehicle: saline with Tween-80

## Oc1ccc2c(c1)[C@]13CCCCC1[C@H](C2)N(Cc1ccoc1)CC3 (some centres undefined)
dose: 100.0 mg/kg/injection, schedule: Q01DX009 (ip), vehicle: saline
  survivor count: 2 of 6
[1]
  survivor count: 0 of 6

## CC(=O)OC1(c2ccccc2)CCN(C)CC1C(=O)c1ccccc1 (centres undefined)
dose: 200.0 mg/kg/injection, schedule: Q01DX005 (ip), vehicle: saline
  survivor count: 2 of 6

## CC1(C)C2CCC1(C)C(O)C2N (centres undefined)
[2]
  survivor count: 2 of 6 and 4 of 5
[3]
  survivor count: 0 of 6

## CCN(CC)CCNc1ccc(O)c2sc3ccccc3c(=O)c12
dose: 50.0 mg/kg/injection, schedule: Q01DX009 (ip), vehicle: saline + alcohol
  survivor count: 6 of 6
dose: 100.0 mg/kg/injection, schedule: Q01DX009 (ip), vehicle: saline + alcohol
  survivor count: 3 of 6
dose: 200.0 mg/kg/injection, schedule: Q01DX009 (ip), vehicle: saline + alcohol
  survivor count: 0 of 6

## S=c1nc[nH]c2c1ncn2C1CCCCO1 (centres undefined)
[4]
  survivor count: 6 of 6
dose: 500.0 mg/kg/injection, schedule: Q01DX009 (ip), vehicle: Klucel (hydroxypropylcellulose) (HPC)
  survivor count: 4 of 6

## CCC/C=[CH]/[Hg][Cl]
dose: 25.0 mg/kg/injection, schedule: Q04DX003 (ip), vehicle: other
  survivor count: 2 of 6

## COCCN=NNc1ccc(C#N)cc1
dose: 200.0 mg/kg/injection, schedule: Q01DX009 (ip), vehicle: distilled water + Tween-80
  survivor count: 5 of 6

## CC(=O)NC#N.CCN(CC)CC.[CH-]1CCCCC1.[CH-]1CCCCC1.[CH-]1CCCCC1.[Cl-].[Sn+4]
[5]
  survivor count: 0 of 6
[6]
  survivor count: 0 of 6
[7]
  survivor count: 0 of 6
[8]
  survivor count: 0 of 6

## CCC1=C[C@H]2CN(CCc3c([nH]c4ccccc34)[C@@](C(=O)OC)(c3cc4c(cc3OC)N(C)[C@H]3C(C(=O)NC)=C[C@]5(CC)C=CCN6CC[C@]43[C@@H]65)C2)C1
dose: 64.0 mg/kg/injection, schedule: Q01DX001 (ip), vehicle: other
  T/C: 126 % of control
dose: 128.0 mg/kg/injection, schedule: Q01DX001 (ip), vehicle: other
  survivor count: 1 of 3
dose: 256.0 mg/kg/injection, schedule: Q01DX001 (ip), vehicle: other
  survivor count: 0 of 3

## COc1cccc(C(c2cc3c(cc2O)OCO3)N2CCOCC2)c1O (centres undefined)
[3]
  T/C: 134 % of control
dose: 480.0 mg/kg/injection, schedule: Q01DX005 (ip), vehicle: saline with Tween-80
  T/C: 134 % of control

## CC(=O)OC1=C2C(C)(C)OC3CC(=O)OCC23C2CCC3(C)C(c4ccoc4)OC(=O)C4OC43C2(C)C1=O (centres undefined)
dose: 8.0 mg/kg/injection, schedule: Q01DX009 (ip), vehicle: saline + alcohol
  survivor count: 3 of 6

## Cc1ccc(N=C=C(c2ccccc2)c2ccccc2)cc1
[9]
  survivor count: 6 of 6

## C=C1C(=O)OC2C1CCC1(C)CC(Br)C(=O)C(C)C21 (centres undefined)
dose: 100.0 mg/kg/injection, schedule: Q04DX002 (ip), vehicle: saline with Tween-80
  T/C: 130 % of control
dose: 200.0 mg/kg/injection, schedule: Q04DX002 (ip), vehicle: saline with Tween-80
  T/C: 131 and 133 % of control
[10]
  T/C: 129 % of control [5 of 6 alive]
  survivor count: 2 of 6

## COC1C(CO)OC(n2cnc3c(=S)nc(N)[nH]c32)C1O (centres undefined)
dose: 200.0 mg/kg/injection, schedule: Q01DX009 (ip), vehicle: saline with Tween-80
  T/C: 136 % of control
[4]
  T/C: 131 % of control
dose: 400.0 mg/kg/injection, schedule: Q04DX003 (ip), vehicle: saline with Tween-80
  T/C: 131 % of control
dose: 600.0 mg/kg/injection, schedule: Q04DX003 (ip), vehicle: saline with Tween-80
  T/C: 131 % of control

## O=c1c2ccccc2sc2cccc(NCCCN3CCN(CCCNc4cccc5sc6ccccc6c(=O)c45)CC3)c12
dose: 7.25 mg/kg/injection, schedule: Q01DX005 (ip), vehicle: saline with Tween-80
  survivor count: 6 of 6
dose: 14.5 mg/kg/injection, schedule: Q01DX005 (ip), vehicle: saline with Tween-80
  survivor count: 6 of 6
dose: 29.0 mg/kg/injection, schedule: Q01DX005 (ip), vehicle: saline with Tween-80
  survivor count: 6 of 6
dose: 58.0 mg/kg/injection, schedule: Q01DX005 (ip), vehicle: saline with Tween-80
  survivor count: 6 of 6

## CC1(C)CCC2(C(=O)O)CCC3(C)C(=CCC4C5(C)CCC(OC6OC(CO)C(O)C(OC7OC(CO)C(O)C(O)C7O)C6OC6OC(CO)C(O)C(O)C6O)C(C)(C)C5CCC43C)C2C1 (centres undefined)
[11]
  survivor count: 5 of 5

## CCC1C[N+]2=C(c3cc(OC)c(OC)cc3CC2)c2c1cc1n2CCc2cc(OC)c(OC)cc2-1 (centres undefined)
[5]
  survivor count: 1 of 6
[12]
  survivor count: 0 of 6
[6]
  survivor count: 0 of 6

## CCCCCC(C1SC(=S)NC1=O)C1SC(=S)NC1=O (centres undefined)
[8]
  survivor count: 2 of 5

## CC(C)(C)N=S=Nc1c(F)c(F)c(F)c(F)c1F
[8]
  survivor count: 0 of 6

## CCOc1c(N=Nc2ccccc2Cl)c(C)nn1C(N)=S
dose: 30.0 mg/kg/injection, schedule: Q01DX005 (ip), vehicle: Klucel + Tween-80
  survivor count: 0 of 6
dose: 60.0 mg/kg/injection, schedule: Q01DX005 (ip), vehicle: Klucel + Tween-80
  survivor count: 0 of 6
dose: 120.0 mg/kg/injection, schedule: Q01DX005 (ip), vehicle: Klucel + Tween-80
  survivor count: 0 of 6
dose: 240.0 mg/kg/injection, schedule: Q01DX005 (ip), vehicle: Klucel + Tween-80
  survivor count: 0 of 6

## CCCCCCCCCCCCCCP(I)(N(C)C)(N(C)C)N(C)C
dose: 0.38 mg/kg/injection, schedule: Q01DX009 (ip), vehicle: saline with Tween-80
  T/C: 135 % of control
dose: 0.75 mg/kg/injection, schedule: Q01DX009 (ip), vehicle: saline with Tween-80
  T/C: 126 and 139 % of control
dose: 1.5 mg/kg/injection, schedule: Q01DX009 (ip), vehicle: saline with Tween-80
  survivor count: 3 of 6 and 6 of 6
dose: 3.0 mg/kg/injection, schedule: Q01DX009 (ip), vehicle: saline with Tween-80
  survivor count: 2 of 6

## CCOC(=O)C(Cc1ccc(N(CCCl)CCCl)cc1)NC(=O)C(Cc1ccc(N)cc1)NC(C)=O (centres undefined)
[5]
  survivor count: 6 of 6
[12]
  survivor count: 6 of 6
[6]
  survivor count: 6 of 6
[7]
  survivor count: 6 of 6
[8]
  T/C: 135 % of control
  survivor count: 6 of 6

## COc1cccc2[se]c(C(=O)O)cc12
[1]
  survivor count: 6 of 6

## Cc1nc(N)nc2ccccc12
[11]
  survivor count: 3 of 6
dose: 120.0 mg/kg/injection, schedule: Q01DX005 (ip), vehicle: Klucel (hydroxypropylcellulose) (HPC)
  survivor count: 1 of 6
dose: 240.0 mg/kg/injection, schedule: Q01DX005 (ip), vehicle: Klucel (hydroxypropylcellulose) (HPC)
  survivor count: 0 of 6

## CCN(CC)CCC(O)(c1ccc2c(c1)OCO2)c1cc(OC)c(OC)c(OC)c1 (centres undefined)
dose: 200.0 mg/kg/injection, schedule: Q01DX005 (ip), vehicle: Klucel (hydroxypropylcellulose) (HPC)
  survivor count: 6 of 6

## CC1=C(Cl)C(=N\S(=O)(=O)c2ccccc2)/c2ccccc2/C1=N/S(=O)(=O)c1ccccc1
dose: 400.0 mg/kg/injection, schedule: Q01DX001 (ip), vehicle: saline with Tween-80
  survivor count: 0 of 6

## CC1(C)CCCC2(C)C1CCC1(C)OC(/C(=C\CO)CO)CC12 (centres undefined)
[9]
  survivor count: 6 of 6

## [Cu+2].[O-]c1ccccc1C=NCC(O)CN=Cc1ccccc1[O-] (centres undefined)
dose: 15.0 mg/kg/injection, schedule: Q01DX005 (ip), vehicle: saline with Tween-80
  survivor count: 4 of 6
dose: 60.0 mg/kg/injection, schedule: Q01DX005 (ip), vehicle: saline with Tween-80
  survivor count: 0 of 6
[2]
  survivor count: 0 of 6
[3]
  survivor count: 0 of 6

## [Zn].c1c[nH]cn1.c1c[nH]cn1.c1c[nH]cn1.c1c[nH]cn1
[7]
  T/C: 131 % of control
  survivor count: 0 of 6 and 5 of 5
[8]
  survivor count: 0 of 6

— PubChem BioAssay AID330 (DTP/NCI, 2004)
